# Experimental data reported in PubChem BioAssay (EPA / NIEHS).
# Inconclusive means that the source gave no clear call. Such entries were picked first, then a sample of the others. Potencies beside an inconclusive call are fits to weak or partial responses and may not hold up. Activity calls are given as the source filed them. Rule for the calls: active = hit-call score of the fitted dose curve at least 0.9, where 1 is the maximum; inconclusive = response in the unintended direction; inactive = score below 0.9.
# Assay: TAMU_HCS_1.5hr_SingleDonor1434_Cytotoxicity: Cytotoxicity Assessment using High-content Screening (HCS) Fluorescent Imaging for the Texas A&M University (TAMU) 1.5-hr Human Induced Pluripotent Stem Cell (iPSC)-derived Cardiotoxicity Assay (AID 2284234)
# Protocol: TAMU_HCS_1.5hr is a cell-based, multiplexed-readout assay that uses iPSC-derived cardiomyocytes with measurements taken at 1.5 hours after chemical dosing in a microplate: 384-well plate.TAMU_HCS_1.5hr_SingleDonor1434_Cytotoxicity is a phenotype derived from the Total.Cells parameter and uses an EC10 as its POD (10% decrease in total cell count, compared to controls). Total Cells measures the total number of nuclei (cell count) using HCS Fluorescent Imaging technology. There is no preprocessing performed on the data to model this phenotype.Data from the assay component TAMU_HCS_1.5hr_Cytotoxicity was analyzed into 1 assay endpoint. This assay endpoint, TAMU_HCS_1.5hr_Cytotoxicity, was analyzed in the positive analysis fitting direction relative to DMSO as the negative control and baseline of activity. Using a type of viability reporter, loss-of-signal activity can be used to understand changes in the viability. To generalize the intended target to other relatable targets, this assay endpoint is annotated to the cell cycle intended target family, where the subfamily is cytotoxicity.
# Each test compound from the chemical master plates was transferred into new tissue culture-treated 384-well microplates using acoustic dispensing (Labcyte Echo 550, Beckman Coulter, Indianapolis, IN) in amounts that would result in 5x concentrations (1, 5, 50, 500 uM) in the working plate in a final volume of 50 uL. Chemicals were randomly divided into 16 separate 384-well plates for screening such that the outer-most wells were left empty (308 wells were used on each plate). Fifteen of the plates contained unique test chemicals (n = 65 chemicals, 4 concentrations, one replicate each), positive controls (n = 10 chemicals, one concentration, 3 replicates each), vehicle (0.5% DMSO, n = 12), and media-only (n = 6) wells. Plate 16 contained test chemicals (n = 54 chemicals, 4 concentrations, one replicate each), inter-plate replicates (n = 11 chemicals with replicates, 4 concentrations, one replicate each), and the same design of positive controls and vehicle- and media-only wells as other plates. These plates were stored at -80C until the day of the assay. On assay day, the 5x concentrated chemical working plate was prepared by adding 50 uL cardiomyocyte maintenance medium containing 2.5% v/v DMSO to each well of the microplates. Then, 12.5 uL of 5x concentrated test chemical solution was added to the test plate to yield final concentrations of 0.2, 1, 10, and 100 uM in 0.5% v/v DMSO using the liquid handling robotics of the FLIPR Tetra. FLIPR Tetra settings were optimized to mix and then transfer test chemicals to the microplate at height = 40 uL, speed = 1 uL/sec, and removal speed = 6 mm/sec, resulting in a total volume of 62.5 uL/well with 0.5% v/v DMSO in cardiomyocyte maintenance medium. Immediately after chemical transfer, cells were incubated 37C and 5% CO2 for 90 minutes. Next, the total volume of cell culture medium containing Ca2+ dye (from the Ca2+ flux assay conducted first) was aspirated and replaced with 25 uL/well pre-warmed staining solution with fluorescent probes for nuclei and mitochondria (2.2 ug/mL Hoechst 33342 and 0.2 uM MitoTracker Orange in cardiomyocyte maintenance medium with 1:500 penicillin/streptomycin solution). Microplates were then incubated at standard conditions for 15 minutes, the staining solution was aspirated, and 25 uL/well pre-warmed fresh maintenance medium containing 1:500 penicillin/streptomycin solution was added to each well to wash before proceeding to image acquisition. Images of each well at 10x magnification were acquired in succession using DAPI (Hoechst 33342 for nuclear staining), TRITC (MitoTracker Orange for mitochondrial staining), and FITC (Ca2+ dye) filters.
SMILES,outcome,AC50
c1ccc2cc3c(cc2c1)-c1cccc2cccc-3c12,inactive,–
[CH3][Hg][Cl],–,active: 8.35 µM
CC1CCCC1.[C-]#[O+].[C-]#[O+].[C-]#[O+].[Mn],–,inconclusive: 0.0192 µM
CCCCC(CC)COC(=O)c1ccccc1C(=O)OCC(CC)CCCC (centres undefined),–,inconclusive: 50 µM
ClC1C(Cl)C(Cl)C(Cl)C(Cl)C1Cl (centres undefined),–,inconclusive: 0.047 µM
O=P(Oc1ccccc1)(Oc1ccccc1)Oc1ccccc1,–,inconclusive: 50 µM
CC1(C)[C@H](C(=O)O[C@H](C#N)c2cccc(Oc3ccccc3)c2)[C@@H]1C=C(Br)Br,–,inconclusive: 50 µM
C=CC(N)=O,–,inconclusive: 50 µM
CCCCC(C#N)(Cn1cncn1)c1ccc(Cl)cc1 (centres undefined),–,inconclusive: 0.344 µM
Clc1ccc(C(c2ccc(Cl)cc2)C(Cl)(Cl)Cl)cc1,–,active: 50 µM
c1ccc(N=Nc2ccccc2)cc1,inactive,–
c1cc2ccc3cccc4ccc(c1)c2c34,–,inconclusive: 50 µM
Cc1ccc(OP(=O)(Oc2ccc(C)cc2)Oc2ccc(C)cc2)cc1 (tested in a mixture with another compound),–,inconclusive: 50 µM
C=C(C)[C@H]1Cc2c(ccc3c2O[C@@H]2COc4cc(OC)c(OC)cc4[C@@H]2C3=O)O1,–,active: 0.01 µM

# Taken from above:
# In AC50, `CC1(C)[C@H](C(=O)O[C@H](C#N)c2cccc(Oc3ccccc3)c2)[C@@H]1C=C(Br)Br` has inconclusive: 50 µM
# In AC50, `Cc1ccc(OP(=O)(Oc2ccc(C)cc2)Oc2ccc(C)cc2)cc1` (tested in a mixture with another compound) has inconclusive: 50 µM
